# From PubChem BioAssay AID2685 (National Center for Advancing Translational Sciences (NCATS), 2010)
# This is one part of the list. Further columns of the screen follow, without active or inactive calls. Most of these compounds were active or inconclusive in the main read-out, so they are no random draw. The note in brackets gives the kind of curve behind each potency; many fits are weak.
# Assay: qHTS Assay for Lipid Storage Modulators in Drosophila S3 Cells;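 as to cell number change: cells counted by Cell Tracker Red CMTPX staining in the red channel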
# Conditions: BODIPY lipid droplet fluorescence, 18-24 h; for cell number change: measured here: cell count max response, cells fed with added oleic acid
# In short: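 Drosophila S3 cells loaded with oleic acid (400 uM, as added) and compounds at several concentrations; lipid droplets imaged by 488-nm laser-scanning cytometry, 500–530 nm intensity and object ratio to cell channel. Percent activity normalized to 20 uM Triacsin C.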
# [1] = measured here: lipid fluorescence (Fed channel) AC50, cells fed with added oleic acid
# [2] = measured here: cell number channel AC50, cells fed with added oleic acid
Structure (SMILES),cell number change,AC50 [1],AC50 [2]
COc1ccc(S(=O)(=O)CCC(=O)N2CCN(c3ccc([N+](=O)[O-])cc3)CC2)cc1,13.8%,–,–
CC1(C)CC(=O)C=C(Nc2ccc3c(c2)CCC3)C1,8.55%,"0.259 µM [rising, full curve, poor fit]",–
O=C(N/N=C/c1ccc2c(c1)OCO2)c1ccc(NS(=O)(=O)c2cccs2)cc1,82.1%,"2.06 µM [rising, single point]","11.6 µM [rising, partial curve]"
COc1ccccc1OC(=O)CCc1nc2ccccc2s1,-16.6%,–,–
CCC(=O)OCCn1c(Br)nc2c1c(=O)[nH]c(=O)n2C,11.3%,"0.82 µM [rising, single point]",–
CCOc1cc(NS(=O)(=O)c2ccccc2)c(OCC)cc1NC(=O)c1ccco1,22.6%,"6.51 µM [rising, partial curve]","0.0651 µM [rising, partial curve, poor fit]"
COc1ccc(CNC(=O)C2CCN(C(=O)N(C)C)CC2)c(OC)c1,-1.17%,"20.6 µM [rising, single point]",–
Cc1cccc(CCNC(=O)CCc2nc(-c3ccccc3F)no2)c1,85.1%,"6.51 µM [rising, single point]","16.4 µM [rising, partial curve]"
CC(C)(O)C#Cc1ccc(C(=O)NCCC(=O)O)s1,-33%,"3.26 µM [falling, full curve]","0.58 µM [falling, full curve]"
Cc1ccccc1C(=O)Nc1ccc(N2CCCC2)cc1,-45.8%,"23.1 µM [falling, partial curve]","23.1 µM [falling, single point]"
COc1cc(/C=C/C(=O)NC(=O)c2ccccc2O)ccc1OC(C)=O,-29.1%,"5.8 µM [falling, single point]",–
CSc1ccc(CN2C(=O)NC3(CCCCC3)C2=O)cc1,9.86%,"0.103 µM [falling, partial curve, poor fit]",–
CCOC(=O)CNc1nc(-c2ccncc2)nc2ccccc12,25%,"3.66 µM [rising, partial curve]","0.103 µM [rising, full curve, poor fit]"
Cc1ccc(/C=C2/NC(=O)N(c3ccccc3)C2=O)o1,-20%,"29.1 µM [falling, single point]",–
CCc1ccc(NC(=O)C2CCCN2S(=O)(=O)c2ccc3c(c2)C(C)(C)C(=O)N3C)cc1 (centres undefined),-7.78%,"2.31 µM [falling, partial curve, poor fit]",–
COc1cccc(OCCOc2ccc(/C=C3\C(=N)N4N=C(S(C)(=O)=O)SC4=NC3=O)cc2OC)c1,-31.3%,"29.1 µM [falling, single point]","29.1 µM [falling, single point]"
Nc1nc(N)c2ncc(C(=O)CCc3ccccc3)nc2n1,-27.7%,–,"0.13 µM [rising, full curve, poor fit]"
Cc1ccc(CNC(=O)c2ccc[nH]2)cc1,–,"6.51 µM [falling, single point]",–
COc1ccccc1CCC(=O)OCC(=O)N1c2ccccc2NC(=O)C1(C)C,11.6%,–,–
COc1ccc(C)cc1S(=O)(=O)Nc1ccccc1C,-4.06%,–,"0.82 µM [rising, partial curve]"

Structure (SMILES),cell number change,AC50 [1],AC50 [2]
CCCC[n+]1c2ccccc2cc2ccccc21,-29.7%,"29.1 µM [falling, single point]",–
COC(=O)c1cc(NC(=O)Nc2ccccc2OC)cc(C(=O)OC)c1,67.9%,"0.13 µM [rising, full curve, poor fit]","0.259 µM [rising, full curve]"
O=[N+]([O-])c1cc(S(=O)(=O)N2CCCC2)ccc1N/N=C1/CCCc2ccccc21,-37.3%,"5.8 µM [falling, full curve]","5.8 µM [falling, full curve]"
Nc1nc(SCC(=O)NN(c2ccccc2)c2ccccc2)n[nH]1,–,"0.103 µM [rising, full curve, poor fit]",–
Cc1cccc(NC(=O)CSc2nnc([C@H](C)NC(=O)OC(C)(C)C)o2)c1C,22%,"14.6 µM [rising, partial curve]",–
NC(=O)c1ccc(NC(=O)COC(=O)C(Cc2ccccc2)NC(=O)c2ccccc2)cc1 (centres undefined),11.8%,"6.51 µM [falling, single point]",–
Cc1ccc(C(=O)NCC(C)(C)N2CCOCC2)s1,-27.6%,"5.8 µM [falling, partial curve]","0.82 µM [falling, full curve, poor fit]"
Cc1ccc(S(=O)(=O)Nc2ccccc2F)cc1C(=O)NCc1ccco1,-4.14%,"5.17 µM [falling, partial curve, poor fit]",–
COC(=O)c1ccc(CN(C)S(=O)(=O)c2ccc(C)cc2)o1,-3.04%,"0.651 µM [falling, single point]","6.51 µM [rising, single point]"
COc1ccccc1-c1cnn2c(N3CCOCC3)cc(C)nc12,24.6%,–,–
CCCNc1cc(=O)n(C)c(=O)n1C,14%,–,"0.00461 µM [rising, full curve, poor fit]"
COc1ccccc1C(=O)NCCC(=O)OCC(=O)Nc1ccc(S(N)(=O)=O)cc1,17%,"0.82 µM [falling, full curve]",–
COc1ccccc1/C=N/OCc1cc(C(C)=O)ccc1OC,1.67%,"3.26 µM [rising, single point]",–
CCOC(=O)C1CCCN(C(=O)c2cnn3c(C(F)F)cc(-c4ccc(C)cc4)nc23)C1 (centres undefined),-9.78%,"2.91 µM [rising, single point]",–
Cc1ccc(Cl)cc1NC(=O)CN1CCN(S(=O)(=O)N2CCC(C)CC2)CC1,6.3%,–,–
CC1(C)Cc2nc(-c3ccccc3)nc(SCC(=O)N3CCOCC3)c2CO1,-20.7%,–,–
O=C(CN1C(=O)NC2(CCCc3ccccc32)C1=O)N1CCN(c2cccc(C(F)(F)F)c2)CC1 (centres undefined),-20.5%,"20.6 µM [falling, single point]",–
NC(CSCc1ccccc1Cl)C(=O)O (centres undefined),–,–,"0.731 µM [rising, single point]"
Cc1nc2c(ccc3nc(NC(=O)c4ccc(S(=O)(=O)N(C)C)cc4)sc32)s1,-16%,–,–
COc1cc(OC)c(OC)cc1/C=N/NC(=S)NCC1CCCO1 (centres undefined),-16.1%,"3.26 µM [rising, partial curve]","2.06 µM [rising, partial curve]"

Structure (SMILES),cell number change,AC50 [1],AC50 [2]
C=CCn1cnc2c(nnn2-c2ccc(Cl)cc2)c1=O,26.2%,–,–
CCC(C)[C@H](NC(=O)NCCCc1ccccc1)C(=O)OC (some centres undefined),24.1%,"0.82 µM [falling, full curve, poor fit]",–
COc1ccc(Oc2nc(C)nc3c2oc2ccccc23)cc1,-8.77%,–,–
CC(=O)NCCc1ccc(S(=O)(=O)N2CCCC2)cc1,3.58%,–,–
N#Cc1ccc(-n2nccc2-c2cnc3n(c2=O)CCS3)cc1,3.31%,"0.291 µM [falling, full curve]",–
CCOC(=O)C1=c2s/c(=C\c3cccnc3)c(=O)n2C(N)=C(C(=O)OC)C1c1cccnc1 (centres undefined),15.1%,"6.51 µM [rising, partial curve, poor fit]","0.326 µM [rising, full curve, poor fit]"
CCNC(=O)NC(=O)COC(=O)CCCc1nc2ccccc2s1,-12.3%,–,"3.66 µM [falling, single point]"
O=C(Nc1ccc(OC(F)(F)F)cc1)Oc1ccccc1N1CCCCC1,13.5%,"2.31 µM [rising, partial curve]",–
CN1CCN(Cc2c(C(=O)N/N=C/c3cccc(Br)c3)nnn2-c2nonc2N)CC1,-9.68%,"29.1 µM [rising, single point]",–
Cc1ccc(C(=O)NNC2=NC(C)(C)Cc3ccccc32)cc1,11%,"0.116 µM [rising, full curve, poor fit]",–
CC(C)(C)c1ccc(NC(=O)CSc2nnc(-c3n[nH]c4ccccc34)o2)cc1,-30.4%,"29.1 µM [falling, single point]","29.1 µM [falling, single point]"
COC(=O)c1sc(N2C(=O)C(O)=C(C(=O)c3ccc(C)o3)C2c2ccc(F)cc2)nc1C (centres undefined),169%,"6.51 µM [rising, single point]","20.6 µM [rising, partial curve]"
COc1ccc(NC(=O)/C=C2\SC(=O)NC2=O)cc1,-15.9%,–,"0.651 µM [falling, partial curve, poor fit]"
O=C(O)Cc1ccc(S(=O)(=O)Nc2ccccc2C(=O)O)cc1,-15.7%,"9.2 µM [falling, partial curve, poor fit]","0.731 µM [falling, single point]"
COC(=O)C1CCCCN1C(=O)c1ccc(OC2CCN(C(C)=O)CC2)c(OC)c1 (centres undefined),15.2%,–,–
COCc1cc(CN2CCN(CCCc3ccccc3)C(CCO)C2)ccc1OC (centres undefined),9.71%,"14.6 µM [falling, partial curve]",–
O=C(COc1ncnc2c(Cl)cc(Cl)cc12)NCCC1=CCCCC1,-4.98%,"0.058 µM [rising, full curve, poor fit]",–
CCOC(=O)N1CCN(CC(=O)Nc2ccc(F)cc2F)CC1,4.75%,–,–
Cc1ccccc1-c1nnc(-c2ccc(Br)cc2)o1,-11.8%,"18.4 µM [rising, partial curve, poor fit]",–

# Among those listed so far, these contain a thiophene ring, fused or not.
Structure (SMILES),cell number change,AC50 [1],AC50 [2]
O=C(N/N=C/c1ccc2c(c1)OCO2)c1ccc(NS(=O)(=O)c2cccs2)cc1,82.1%,"2.06 µM [rising, single point]","11.6 µM [rising, partial curve]"
CC(C)(O)C#Cc1ccc(C(=O)NCCC(=O)O)s1,-33%,"3.26 µM [falling, full curve]","0.58 µM [falling, full curve]"
Cc1ccc(C(=O)NCC(C)(C)N2CCOCC2)s1,-27.6%,"5.8 µM [falling, partial curve]","0.82 µM [falling, full curve, poor fit]"
